Results as given in patent US20220340899A1 (UNIVERSITÄT BERN, priority 2019, published 2022).

Assay: general procedure: Fmoc solid-phase peptide synthesis; Tentagel S RAM resin (0.22-0.25 mmol/g), 300 mg; PyBOP/DIPEA (manual); Oxyma/DIC (synthesiser)
Settings: whole synthesis, trifluoroacetate salt; for isolated yield: scale of the general procedure 0.10 mmol (CEM Liberty Blue)

(KL)8(KKL)4(KKL)2KK(Oleic Acid)C
isolated yield (run 1): 2% | isolated yield (run 2): 4% | isolated mass (run 1): 2.3 mg | isolated mass (run 2): 5.85 mg

(kl)8(kkl)4(kll)2kfff
isolated yield (run 1): 1% | isolated mass (run 1): 0.7 mg

(KL)8(KKL)4(KLL)2KK(C20)
isolated yield: 1% | isolated mass: 4.1 mg

(KL)8(KKL)4(KLL)2KK(C22)
isolated yield (run 1): 8% | isolated yield (run 2): 1% | isolated mass (run 1): 11.4 mg | isolated mass (run 2): 3.2 mg

(KL)8(KKL)4(KLL)2KK(C18)K(C18)
isolated yield: 1% | isolated mass: 2.4 mg

(KL)8(KLL)4(KLL)2KLLLL
isolated yield: 2% | isolated mass: 10.1 mg

(kl)8(kkl)4(kll)2kk(C16)k(C16)
isolated yield: 7% | isolated mass: 128.4 mg

(kl)8(kkl)4(kll)2kllll
isolated yield: 11% | isolated mass: 73.6 mg

(KL)8(KKL)4(KLL)2KFFF
isolated yield: 3% | isolated mass: 13.7 mg

(kl)8(kkl)4(kll)2kaocaocaocaoc
isolated yield: 3% | isolated mass: 13.3 mg

(KL)8(KKL)4(KLL)2KK(C18)
isolated yield: 2% | isolated mass: 6.0 mg

(kl)8(kkl)4(kll)2knlenlenlenle
isolated yield: 4% | isolated mass: 19.3 mg

(KL)8(KKL)4(KLL)2KK(C26)
isolated yield: 1% | isolated mass: 3.1 mg

(rl)8(krl)4(krl)2kk(C18)c
isolated yield: 14% | isolated mass: 26.6 mg

(rl)8(krl)4(krl)2kk(C16)
isolated yield: 11% | isolated mass: 14 mg

(rl)8(kkl)4(kll)2knlenlenlenle
isolated yield: 1% | isolated mass: 1.6 mg

(kl)8(KKL)4(KLL)2KK(C16)K(C16)
isolated yield: 2% | isolated mass: 16.2 mg

(KL)8(KKL)4(KLL)2KK(C14)K(C14)
isolated yield: 1% | isolated mass: 2.3 mg

(KL)8(KKL)4(KKL)2KLLLL
isolated yield: 2% | isolated mass: 8.5 mg

(KL)8(KKL)4(KLL)2KK(C24)
isolated yield: 1% | isolated mass: 4.5 mg

(KL)8(KKL)4(KLL)2KNleNleNleNle
isolated yield: 1% | isolated mass: 5.1 mg

(kl)8(kkl)4(kkl)2kk(C16)c
isolated yield: 3% | isolated mass: 6.04 mg

(kl)8(kkl)4(knlenle)2kk(C16)k(C16)
isolated yield (run 1): 3% | isolated mass: 12.7 mg

(kl)8(kkl)4(kkl)2kk(C18)a
isolated yield: 18% | isolated mass: 114 mg

(kl)8(kkl)4(kll)2kaocaocaoc
isolated yield: 2% | isolated mass: 8.4 mg

(RL)8(KRL)4(KLL)2KLLLL
isolated yield: 5% | isolated mass: 25.9 mg

(KL)8(KKL)4(KLL)2KLLLL
isolated yield: 8% | isolated mass: 52.7 mg

(rl)8(krl)4(krl)2kk(C16)c
isolated yield: 4% | isolated mass: 9 mg

(kl)8(kkl)4(kll)2klllc
isolated yield: 21% | isolated mass: 129.5 mg

(rl)8(krl)4(krl)2kk(C18)
isolated yield: 15% | isolated mass: 13 mg

(kl)8(kkl)4(kkl)2kk(C16)
isolated yield: 16% | isolated mass: 22 mg

(KL)8(KKL)4(KKL)2KK(C18)K(C18)
isolated yield (run 1): 2% | isolated mass (run 1): 2.3 mg

(KL)8(KKL)4(KLL)2KLLLLL
isolated yield: 1% | isolated mass: 4.7 mg

(KL)8(KKL)4(KLL)2KK(C16)K(C16)
isolated yield: 4% | isolated mass: 26.8 mg

(KL)8(KKL)4(KLL)2KWWWW
isolated yield: 1% | isolated mass: 4.5 mg

(KH)8(KKH)4(KKL)2KK(Oleic Acid)K(Oleic Acid)
isolated yield: 3% | isolated mass: 2.7 mg

(KL)8(KKL)4(KLL)2KWWWWW
isolated yield: 1% | isolated mass: 1.7 mg

(kl)8(krl)4(kll)2knlenlenlenle
isolated yield: 5% | isolated mass: 17.3 mg

(rl)8(krl)4(krl)2kk(C18)a
isolated yield: 12% | isolated mass: 25 mg

(KL)8(KKL)4(KLL)2KK(C28)
isolated yield: 1% | isolated mass: 3.1 mg

(kl)8(kkl)4(kkl)2kk(C18)
isolated yield: 23% | isolated mass: 20 mg
